Data reported in paper PMC9793311.
These are yes or no findings as the source states them, for the method shown. For some of these results: In cells and extracts the contact can be indirect. Some binding calls cover weakened binding; strength is not graded here. For some of these results: Sequences can lack the tags named with a protein.

Sequences of proteins named here, by UniProt entry; tags and fusion partners are left off. A change or cut given only in a name is not applied to a line headed by its entry.
UniProt P40793: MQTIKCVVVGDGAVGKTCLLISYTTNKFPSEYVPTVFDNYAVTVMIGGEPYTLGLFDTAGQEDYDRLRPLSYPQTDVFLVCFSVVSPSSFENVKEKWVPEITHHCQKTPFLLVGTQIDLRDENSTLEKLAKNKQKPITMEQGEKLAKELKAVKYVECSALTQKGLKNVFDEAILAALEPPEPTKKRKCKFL

T1: His Par-6 1–351 (Drosophila melanogaster) (UniProt O97111)
T1 sequence: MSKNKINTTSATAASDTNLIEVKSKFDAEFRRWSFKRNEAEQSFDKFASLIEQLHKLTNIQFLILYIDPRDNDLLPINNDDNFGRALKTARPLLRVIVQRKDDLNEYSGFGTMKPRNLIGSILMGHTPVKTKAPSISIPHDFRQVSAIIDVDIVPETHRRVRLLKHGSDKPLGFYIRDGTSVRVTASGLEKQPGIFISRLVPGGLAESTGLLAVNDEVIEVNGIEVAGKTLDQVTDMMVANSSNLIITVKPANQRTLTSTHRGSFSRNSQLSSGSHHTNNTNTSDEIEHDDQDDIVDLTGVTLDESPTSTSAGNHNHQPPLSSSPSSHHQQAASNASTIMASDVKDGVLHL


Tests used:
[1] = target: T1, His Par-6 1–351 (Drosophila melanogaster); test: co-purification; His Par-6 and untagged aPKC coexpressed in 293F cells; lysate on cobalt or nickel resin, then Source Q anion exchange
[2] = target: GST-Cdc42^Q61L (Drosophila melanogaster) (UniProt P40793); test: pull-down; data not shown: Par-3 PDZ3 added to Par complex on solid phase Cdc42
[3] = target: GST-Cdc42^Q61L (Drosophila melanogaster) (UniProt P40793); test: pull-down; GST-fused protein on glutathione resin (from bacterial lysate, washed 4x); soluble purified proteins added, 60 min at room temperature; 20 mM Hepes pH 7.5, 100 mM NaCl, 5 mM MgCl2, 0.5% Tween-20, 1 mM DTT, 200 uM ATP; Coomassie-stained gel; both purified

binding [1]	binding [2]	binding [3]	Binder
binds	–	–	aPKC 1–600 (enzyme, UniProt A1Z9X0 1-600) MQKMPSQILNDGSSVSLNSASMNMANTPNSITVKTAYNGQIIITTINKNISYEELCYEIRNICRFPLDQPFTIKWVDEENDPCTISTKMELDEAIRLYEMNFDSQLVIHVFPNVPQAPGLSCDGEDRSIYRRGARRWRKLYRVNGHIFQAKRFNRRAFCAYCQDRIWGLGRQGFKCIQCKLLVHKKCHKLVQKHCTDQPEPLVKERAEESSDPIPVPLPPLPYEAMSGGAEACETHDHAHIVAPPPPEDPLEPGTQRQYSLNDFELIRVIGRGSYAKVLMVELRRTRRIYAMKVIKKALVTDDEDIDWVQTEKHVFETASNHPFLVGLHSCFQTPSRLFFVIEFVRGGDLMYHMQRQRRLPEEHARFYAAEISLALNFLHEKGIIYRDLKLDNVLLDHEGHIKLTDYGMCKEGIRPGDTTSTFCGTPNYIAPEILRGEDYGFSVDWWALGVLLYEMLAGRSPFDLAGASENPDQNTEDYLFQVILEKTIRIPRSLSVRAASVLKGFLNKNPADRLGCHRESAFMDIVSHPFFKNMDWELLERKQVTPPFKPRLDSDRDLANFPPEFTGEAVQLTPDDDHVIDNIDQSEFEGFEYVNPLLM
–	binds	binds	Par complex (complex, UniProt O97111 1-351; A1Z9X0 1-606) chain 1: MSKNKINTTSATAASDTNLIEVKSKFDAEFRRWSFKRNEAEQSFDKFASLIEQLHKLTNIQFLILYIDPRDNDLLPINNDDNFGRALKTARPLLRVIVQRKDDLNEYSGFGTMKPRNLIGSILMGHTPVKTKAPSISIPHDFRQVSAIIDVDIVPETHRRVRLLKHGSDKPLGFYIRDGTSVRVTASGLEKQPGIFISRLVPGGLAESTGLLAVNDEVIEVNGIEVAGKTLDQVTDMMVANSSNLIITVKPANQRTLTSTHRGSFSRNSQLSSGSHHTNNTNTSDEIEHDDQDDIVDLTGVTLDESPTSTSAGNHNHQPPLSSSPSSHHQQAASNASTIMASDVKDGVLHL chain 2: MQKMPSQILNDGSSVSLNSASMNMANTPNSITVKTAYNGQIIITTINKNISYEELCYEIRNICRFPLDQPFTIKWVDEENDPCTISTKMELDEAIRLYEMNFDSQLVIHVFPNVPQAPGLSCDGEDRSIYRRGARRWRKLYRVNGHIFQAKRFNRRAFCAYCQDRIWGLGRQGFKCIQCKLLVHKKCHKLVQKHCTDQPEPLVKERAEESSDPIPVPLPPLPYEAMSGGAEACETHDHAHIVAPPPPEDPLEPGTQRQYSLNDFELIRVIGRGSYAKVLMVELRRTRRIYAMKVIKKALVTDDEDIDWVQTEKHVFETASNHPFLVGLHSCFQTPSRLFFVIEFVRGGDLMYHMQRQRRLPEEHARFYAAEISLALNFLHEKGIIYRDLKLDNVLLDHEGHIKLTDYGMCKEGIRPGDTTSTFCGTPNYIAPEILRGEDYGFSVDWWALGVLLYEMLAGRSPFDLAGASENPDQNTEDYLFQVILEKTIRIPRSLSVRAASVLKGFLNKNPADRLGCHRESAFMDIVSHPFFKNMDWELLERKQVTPPFKPRLDSDRDLANFPPEFTGEAVQLTPDDDHVIDNIDQSEFEGFEYVNPLLMSLEDCV
binds	–	–	aPKC 1–606 (enzyme, UniProt A1Z9X0 1-606) MQKMPSQILNDGSSVSLNSASMNMANTPNSITVKTAYNGQIIITTINKNISYEELCYEIRNICRFPLDQPFTIKWVDEENDPCTISTKMELDEAIRLYEMNFDSQLVIHVFPNVPQAPGLSCDGEDRSIYRRGARRWRKLYRVNGHIFQAKRFNRRAFCAYCQDRIWGLGRQGFKCIQCKLLVHKKCHKLVQKHCTDQPEPLVKERAEESSDPIPVPLPPLPYEAMSGGAEACETHDHAHIVAPPPPEDPLEPGTQRQYSLNDFELIRVIGRGSYAKVLMVELRRTRRIYAMKVIKKALVTDDEDIDWVQTEKHVFETASNHPFLVGLHSCFQTPSRLFFVIEFVRGGDLMYHMQRQRRLPEEHARFYAAEISLALNFLHEKGIIYRDLKLDNVLLDHEGHIKLTDYGMCKEGIRPGDTTSTFCGTPNYIAPEILRGEDYGFSVDWWALGVLLYEMLAGRSPFDLAGASENPDQNTEDYLFQVILEKTIRIPRSLSVRAASVLKGFLNKNPADRLGCHRESAFMDIVSHPFFKNMDWELLERKQVTPPFKPRLDSDRDLANFPPEFTGEAVQLTPDDDHVIDNIDQSEFEGFEYVNPLLMSLEDCV
